Values from PubChem BioAssay AID1259308 (NCATS, 2017)
Screen: 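Knock-downs that increase output of a recombinant reporter protein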 (primary screen). Cells: human HEK293 embryonic kidney cells stably expressing firefly luciferase (HEK-CMV-Luc2-Hygro). Reagents: single siRNA against human genes, 0.8 pmol siRNA per well. Timing: 72 h. Detection: 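Reporter luminescence and viable-cell signal on separate replicate plates, given as percent of non-targeting control and median/MAD z-scores, plus per-cell luciferase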. Reading the numbers: total luciferase, z-score and total luciferase, % of control: higher = more reporter protein produced; luciferase per cell, z-score: higher = more reporter output per viable cell; viable cells, % of control: higher = more viable cells. Rule for the call: 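An siRNA counts as active if its total luciferase robust z-score exceeds 3; genes with two or more such siRNAs out of three were retested with fresh siRNAs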. Meaning of the calls: active = raised luciferase; inactive = no rise.
Here is a random part of about 59,000 reagents tested. Of all reagents, about 1,510 (2.6%) were called active. 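Calls use total luciferase alone and ignore viability, so some active siRNAs may act by altering cell number.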 Entries without a mark were called inactive. Reagents against one gene are numbered here.

| target | reagent | total luciferase, z-score | total luciferase, % of control | luciferase per cell, z-score | viable cells, % of control |
| --- | --- | --- | --- | --- | --- |
| IRAK2 | 1 | 1.06 | 103 | 1.34 | 80.8 |
| IRAK2 | 2 | -0.156 | 78.8 | -0.0916 | 90.2 |
| IRAK2 | 3 | 0.39 | 89.6 | 0.273 | 93.2 |
| OR1G1 | 1 | -0.885 | 64.3 | -0.937 | 91.9 |
| OR1G1 | 2 | -0.682 | 68.3 | -0.581 | 88.9 |
| OR1G1 | 3 | 0.355 | 89 | -0.0417 | 100 |
| PDE8B | 1 | -0.565 | 70.6 | -0.867 | 99.2 |
| PDE8B | 2 | -1.29 | 56.2 | -2.09 | 109 |
| PDE8B | 3 | -1.11 | 59.9 | -1.09 | 89 |
| SPATA21 | 1 | 1.43 | 110 | 1.92 | 74.4 |
| SPATA21 | 2 | -0.858 | 64.8 | -0.471 | 82 |
| SPATA21 | 3 | -1.96 | 42.9 | -1.76 | 76.3 |
| FAM149A | 1 | 0.967 | 101 | 1.74 | 71.5 |
| FAM149A | 2 | -1.25 | 57 | -1.1 | 85 |
| FAM149A | 3 | 1.71 | 116 | 1.99 | 76.7 |
| ABHD14B | 1 | 0.361 | 89.1 | -0.362 | 109 |
| ABHD14B | 2 | -0.408 | 73.8 | -0.447 | 92.7 |
| ABHD14B | 3 | -0.599 | 70 | -0.375 | 86.3 |
| NUDT16L1 | 1 | -0.394 | 74 | -0.0354 | 83.5 |
| NUDT16L1 | 2 | -0.556 | 70.8 | -0.324 | 86.2 |
| NUDT16L1 | 3 | 0.0317 | 82.5 | 0.0684 | 90.6 |
| VPS39 | 1 | 0.995 | 102 | 1.6 | 74.6 |
| VPS39 | 2 | -0.212 | 77.7 | -0.227 | 92.1 |
| VPS39 | 3 | 1.02 | 102 | 1.28 | 81.6 |
| GLRX5 | 1 | 0.167 | 85.2 | 0.421 | 85.2 |
| GLRX5 | 2 | -1.22 | 57.5 | -1.8 | 103 |
| GLRX5 | 3 | -0.788 | 66.2 | -1.57 | 112 |
| TMEM244 | 1 | 0.164 | 85.2 | 0.204 | 90.2 |
| TMEM244 | 2 | -0.232 | 77.3 | 0.599 | 73.7 |
| TMEM244 | 3 | 0.354 | 88.9 | 0.0689 | 97.6 |
| PRR19 | 1 | -1.03 | 61.5 | -1.19 | 93.8 |
| PRR19 | 2 | 0.325 | 88.4 | -0.266 | 106 |
| PRR19 | 3 | -0.0617 | 80.7 | -0.191 | 94.8 |
| CDKN1C | 1 | -0.441 | 73.1 | -0.795 | 101 |
| CDKN1C | 2 | 0.574 | 93.3 | 1.07 | 78.7 |
| CDKN1C | 3 | -0.196 | 78 | -0.833 | 109 |
| ATP12A | 1 | 1.08 | 103 | 0.407 | 104 |
| ATP12A | 2 | 0.0419 | 82.7 | -0.116 | 95.3 |
| ATP12A | 3 | 0.0311 | 82.5 | -0.493 | 105 |
| ADAMTS5 | 1 | -0.84 | 65.2 | -0.44 | 81.8 |
| ADAMTS5 | 2 | 0.78 | 97.4 | 1.06 | 82.3 |
| ADAMTS5 | 3 | 0.678 | 95.4 | 0.277 | 99.1 |
| SLC6A6 | 1 | -0.465 | 72.6 | -1.14 | 110 |
| SLC6A6 | 2 | 0.819 | 98.2 | -0.216 | 116 |
| SLC6A6 | 3 | 1.61 | 114 | 0.697 | 106 |
| ORC5 | 1 | -0.644 | 69.1 | -1.04 | 101 |
| ORC5 | 2 | 1.69 | 116 | 1.89 | 78.6 |
| ORC5 | 3 | -1.45 | 53.1 | -1.85 | 96.7 |
| HYCC1 | 1 | 0.845 | 98.7 | -0.0884 | 113 |
| HYCC1 | 2 | -0.453 | 72.9 | -0.136 | 84.4 |
| HYCC1 | 3 | -0.105 | 79.8 | -0.382 | 98.6 |
| STAU1 | 1 | -0.00657 | 81.8 | -0.0453 | 92.5 |
| STAU1 | 2 | -0.621 | 69.5 | -1.66 | 120 |
| STAU1 | 3 | -0.636 | 69.2 | -1.3 | 109 |
| LRATD2 | 1 | 0.677 | 95.3 | 2.88 | 50 |
| LRATD2 | 2 | -0.182 | 78.3 | 0.538 | 75.9 |
| LRATD2 | 3 | -0.34 | 75.1 | -0.412 | 93.6 |

Limited to “luciferase per cell, z-score” (8 entries from above):
FAM149A #3: 1.99
ABHD14B #1: -0.362
ABHD14B #2: -0.447
ABHD14B #3: -0.375
NUDT16L1 #1: -0.0354
NUDT16L1 #2: -0.324
NUDT16L1 #3: 0.0684
VPS39 #1: 1.6
